The supplement of paper PMC6445147
Values scatter widely in this assay.

B1: human tRNA-Pro; a variant is named by its letters at N, in order (parent)
chain: GGCTCGTTGGTCTAGNGGTATGATTCTCGCTTAGGGTGCGAGAGGTCCCGGGTTCNNATCCCGGACGAGCCC

Key:
[1] = variants of: B1; assay: tRNA Pol-III promoter activity, log2 (circRNA frequency / plasmid DNA frequency) (log2 ratio); higher = stronger promoter activity; conditions: HEK293T; construct: no Pol-II promoter ((-)CMV library)
[2] = variants of: B1; assay: tRNA 3' processing efficiency (processed reads / all reads, maximum-likelihood estimate) (fraction); higher = more efficient 3' processing; conditions: HEK293T; construct: no Pol-II promoter ((-)CMV library)
[3] = variants of: B1; assay: tRNA 5' processing efficiency (processed reads / all reads, maximum-likelihood estimate) (fraction); higher = more efficient 5' processing; conditions: HEK293T; construct: CMV Pol-II promoter ((+)CMV library, decapped)

Variant	tRNA Pol-III promoter activity (log2) [1]	tRNA 3' processing efficiency [2]	tRNA 5' processing efficiency [3]
GGCTCGTTGGTCTACCGGTATGATTCTCGCTTAGGGTGCGAGAGGTCCCGGGTTTTAATCCCGGACGAGCCC [CTA G15C C55T]	5.93	0.25	–
GGCTCGTTGGTCTAGCGGTATGATTCTCGCTTAGGGTGCGAGAGGTCCCGGGTCCGCATCCCGGACGAGCCC [CGC T54C]	3.94	0.14	–
GGCTCGTTGGTCTCGTGGTATGATTCTCGCTTAGGGTGCGAGAGGTCCCGGGTTCAAAGCCCGGACGAGCCC [TAA A14C T59G]	4.91	0.1	–
GGCTCGTTAGTCTAGCGGTATGATTCTCGCTTAGGGTGCGAGAGGTCCCGGGTTCAAGGCCCGGACGAGCCC [CAA G9A A58G T59G]	6.25	0.4	–
GGCTCGTTGGTCTAGGGGTATGATTCTCGCTTAGGGTGCGAGAGGTCCCGGGTTCAGCTCCCGGACGAGCCC [GAG A58C]	1.8	0.07	0.29
GGCTCGTTGGTCTGGCGGTATGATTCTCGCTTAGGGTGCGAGAGGTCCCGGGTTCAGATCCCGGACGAGCCC [CAG A14G]	2.55	0.25	–
GGCTCGTAGGTCTCCGGGTATGATTCTCGCTTAGGGTGCGAGAGGTCCCGGGTTCAAATCCCGGACGAGCCC [GAA T8A A14C G15C]	7.25	0.3	–
GGCTCGTAGGTCTTGACGTATGATTCTCGCTTAGGGTGCGAGAGGTCCCGGGTCCAACTCCCGGACGAGCCC [AAA T8A A14T G17C T54C A58C]	3.93	0.17	–
GGCTCGTCGGTCTTGGGGTATGATTCTCGCTTAGGGTGCGAGAGGTCCCGGGTTCAATTCCCGGACGAGCCC [GAA T8C A14T A58T]	5.74	0.14	–
GGCTCGTTGGTCTGGGGGTATGATTCTCGCTTAGGGTGCGAGAGGTCCCGGGTTCATTTCCCGGACGAGCCC [GAT A14G A58T]	2.39	0.5	–
GGCTCGTTGGTCTAGGTGTATGATTCTCGCTTAGGGTGCGAGAGGTCCCGGGTTCTACTCCCGGACGAGCCC [GTA G17T A58C]	3.33	0.37	–
GGCTCGTCGGTCTAGGGGTATGATTCTCGCTTAGGGTGCGAGAGGTCCCGGGTTCGGATCCCGGACGAGCCC [GGG T8C]	6.38	0.28	–
GGCTCGTGGGTCTAGGGGTATGATTCTCGCTTAGGGTGCGAGAGGTCCCGGGCTCACCGCCCGGACGAGCCC [GAC T8G T53C A58C T59G]	4.03	0.6	–
GGCTCGTTTGTCTAGAGGTATGATTCTCGCTTAGGGTGCGAGAGGTCCCGGGTTCAAATCCCGGACGAGCCC [AAA G9T]	-1.6	0.5	–
GGCTCGTTGGTCTAGTGGTATGATTCTCGCTTAGGGTGCGAGAGGTCCCGGGTTTCAATCCCGGACGAGCCC [TCA C55T]	1.85	0.25	–
GGCTCGTTGGTCTGGTGGTATGATTCTCGCTTAGGGTGCGAGAGGTCCCGGGTACAAATCCCGGACGAGCCC [TAA A14G T54A]	2.93	0.17	–
GGCTCGTTGGTCTAAGGGTATGATTCTCGCTTAGGGTGCGAGAGGTCCCGGGTTCTCATCCCGGACGAGCCC [GTC G15A]	2.86	0.25	–
GGCTCGTTAGTCTAGTGGTATGATTCTCGCTTAGGGTGCGAGAGGTCCCGGGTACAAATCCCGGACGAGCCC [TAA G9A T54A]	3.18	0.2	–
GGCTCGTTGGTCTAGCGGTATGATTCTCGCTTAGGGTGCGAGAGGTCCCGGGTTCATTTCCCGGACGAGCCC [CAT A58T]	2.23	0.25	–

11 entries from above, with bars between the fields:
Variant | tRNA Pol-III promoter activity (log2) [1] | tRNA 3' processing efficiency [2] | tRNA 5' processing efficiency [3]
GGCTCGTTGGTCTCGTGGTATGATTCTCGCTTAGGGTGCGAGAGGTCCCGGGTTCAAAGCCCGGACGAGCCC [TAA A14C T59G] | 4.91 | 0.1 | –
GGCTCGTTAGTCTAGCGGTATGATTCTCGCTTAGGGTGCGAGAGGTCCCGGGTTCAAGGCCCGGACGAGCCC [CAA G9A A58G T59G] | 6.25 | 0.4 | –
GGCTCGTTGGTCTAGGGGTATGATTCTCGCTTAGGGTGCGAGAGGTCCCGGGTTCAGCTCCCGGACGAGCCC [GAG A58C] | 1.8 | 0.07 | 0.29
GGCTCGTTGGTCTGGCGGTATGATTCTCGCTTAGGGTGCGAGAGGTCCCGGGTTCAGATCCCGGACGAGCCC [CAG A14G] | 2.55 | 0.25 | –
GGCTCGTAGGTCTCCGGGTATGATTCTCGCTTAGGGTGCGAGAGGTCCCGGGTTCAAATCCCGGACGAGCCC [GAA T8A A14C G15C] | 7.25 | 0.3 | –
GGCTCGTAGGTCTTGACGTATGATTCTCGCTTAGGGTGCGAGAGGTCCCGGGTCCAACTCCCGGACGAGCCC [AAA T8A A14T G17C T54C A58C] | 3.93 | 0.17 | –
GGCTCGTCGGTCTTGGGGTATGATTCTCGCTTAGGGTGCGAGAGGTCCCGGGTTCAATTCCCGGACGAGCCC [GAA T8C A14T A58T] | 5.74 | 0.14 | –
GGCTCGTTGGTCTGGGGGTATGATTCTCGCTTAGGGTGCGAGAGGTCCCGGGTTCATTTCCCGGACGAGCCC [GAT A14G A58T] | 2.39 | 0.5 | –
GGCTCGTTGGTCTAGGTGTATGATTCTCGCTTAGGGTGCGAGAGGTCCCGGGTTCTACTCCCGGACGAGCCC [GTA G17T A58C] | 3.33 | 0.37 | –
GGCTCGTCGGTCTAGGGGTATGATTCTCGCTTAGGGTGCGAGAGGTCCCGGGTTCGGATCCCGGACGAGCCC [GGG T8C] | 6.38 | 0.28 | –
GGCTCGTGGGTCTAGGGGTATGATTCTCGCTTAGGGTGCGAGAGGTCCCGGGCTCACCGCCCGGACGAGCCC [GAC T8G T53C A58C T59G] | 4.03 | 0.6 | –

Remaining list, next part

Variant	tRNA Pol-III promoter activity (log2) [1]	tRNA 3' processing efficiency [2]	tRNA 5' processing efficiency [3]
GGCTCGTTGGTCTAGGGATATGATTCTCGCTTAGGGTGCGAGAGGTCCCGGGTTCCAATCCCGGACGAGCCC [GCA G18A]	0.194	0.36	–
GGCTCGTTGGTCTAGGGAAATGATTCTCGCTTAGGGTGCGAGAGGTCCCGGGTTCAAAGCCCGGACGAGCCC [GAA G18A T19A T59G]	4.94	0.25	–
GGCTCGTTGGTCTAGTGGGATGATTCTCGCTTAGGGTGCGAGAGGTCCCGGGTTCAAAGCCCGGACGAGCCC [TAA T19G T59G]	4.58	0.57	–
GGCTCGTTGGTCTGGTGGTTTGATTCTCGCTTAGGGTGCGAGAGGTCCCGGGTTCATATCCCGGACGAGCCC [TAT A14G A20T]	3.94	0.57	–
GGCTCGTTGGTCTAGTGGCATGATTCTCGCTTAGGGTGCGAGAGGTCCCGGGTTCAAAGCCCGGACGAGCCC [TAA T19C T59G]	6.94	0.62	–
GGCTCGTTGGTCTGGAGGTATGATTCTCGCTTAGGGTGCGAGAGGTCCCGGGTTCAAATCCCGGACGAGCCC [AAA A14G]	-0.932	0.25	–
GGCTCGTTGGTCTATCGGTATGATTCTCGCTTAGGGTGCGAGAGGTCCCGGGTTCTAATCCCGGACGAGCCC [CTA G15T]	3.61	0.13	–
GGCTCGTCGGTCTGCGGGAATGATTCTCGCTTAGGGTGCGAGAGGTCCCGGGTTCAAATCCCGGACGAGCCC [GAA T8C A14G G15C T19A]	5.16	0.86	–
GGCTCGTTCGTCTAGGGGAATGATTCTCGCTTAGGGTGCGAGAGGTCCCGGGTTAGAATCCCGGACGAGCCC [GGA G9C T19A C55A]	7.94	0.75	–
GGCTCGTTGGTCTTGGGGTTTGATTCTCGCTTAGGGTGCGAGAGGTCCCGGGGTCAAATCCCGGACGAGCCC [GAA A14T A20T T53G]	2.43	0.5	–
GGCTCGTTGGTCTAGCTGTATGATTCTCGCTTAGGGTGCGAGAGGTCCCGGGTACAAATCCCGGACGAGCCC [CAA G17T T54A]	4.25	0.75	–
GGCTCGTTGGTCTAGGGGTATGATTCTCGCTTAGGGTGCGAGAGGTCCCGGGTACAAGGCCCGGACGAGCCC [GAA T54A A58G T59G]	4.44	0.7	–
GGCTCGTTGGTCTAGGTGTGTGATTCTCGCTTAGGGTGCGAGAGGTCCCGGGATCAAATCCCGGACGAGCCC [GAA G17T A20G T53A]	4.34	0.17	–
GGCTCGTTGGTCTAGAGGTATGATTCTCGCTTAGGGTGCGAGAGGTCCCGGGTTCCAAGCCCGGACGAGCCC [ACA T59G]	4.21	0.5	–
GGCTCGTAGGTCTACGTGTATGATTCTCGCTTAGGGTGCGAGAGGTCCCGGGTTCAAATCCCGGACGAGCCC [GAA T8A G15C G17T]	3.04	0.25	–
GGCTCGTTGGTCTAGTGGTATGATTCTCGCTTAGGGTGCGAGAGGTCCCGGGTTCAATGCCCGGACGAGCCC [TAA A58T T59G]	3.08	0.41	–
GGCTCGTTGGTCTACCGGTATGATTCTCGCTTAGGGTGCGAGAGGTCCCGGGTTCAGATCCCGGACGAGCCC [CAG G15C]	4.66	0.35	–
GGCTCGTTGGTCTAGGGTTATGATTCTCGCTTAGGGTGCGAGAGGTCCCGGGTTCAGAACCCGGACGAGCCC [GAG G18T T59A]	4.94	0.62	–
